Reference: article PMC4775073
No constants are given. Whether binding was seen depends on the method and setting. In cells and extracts the contact can be indirect.

Chains of the proteins cited; added tags and fusions are not shown. Lines headed by an entry give the natural chain unless they say otherwise; changes in a name come on top.
UniProt P30988: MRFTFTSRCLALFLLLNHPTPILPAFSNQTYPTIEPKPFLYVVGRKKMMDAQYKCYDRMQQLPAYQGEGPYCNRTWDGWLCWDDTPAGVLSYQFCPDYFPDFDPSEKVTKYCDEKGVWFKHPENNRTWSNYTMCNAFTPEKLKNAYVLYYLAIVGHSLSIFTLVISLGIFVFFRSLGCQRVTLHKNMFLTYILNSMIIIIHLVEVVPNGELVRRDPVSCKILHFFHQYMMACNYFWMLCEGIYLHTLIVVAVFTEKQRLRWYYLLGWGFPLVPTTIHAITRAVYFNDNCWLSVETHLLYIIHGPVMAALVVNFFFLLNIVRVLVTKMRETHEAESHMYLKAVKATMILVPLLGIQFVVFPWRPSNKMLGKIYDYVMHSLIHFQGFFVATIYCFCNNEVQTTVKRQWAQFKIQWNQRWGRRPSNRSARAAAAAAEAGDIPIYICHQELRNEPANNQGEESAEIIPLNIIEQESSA
UniProt Q07157: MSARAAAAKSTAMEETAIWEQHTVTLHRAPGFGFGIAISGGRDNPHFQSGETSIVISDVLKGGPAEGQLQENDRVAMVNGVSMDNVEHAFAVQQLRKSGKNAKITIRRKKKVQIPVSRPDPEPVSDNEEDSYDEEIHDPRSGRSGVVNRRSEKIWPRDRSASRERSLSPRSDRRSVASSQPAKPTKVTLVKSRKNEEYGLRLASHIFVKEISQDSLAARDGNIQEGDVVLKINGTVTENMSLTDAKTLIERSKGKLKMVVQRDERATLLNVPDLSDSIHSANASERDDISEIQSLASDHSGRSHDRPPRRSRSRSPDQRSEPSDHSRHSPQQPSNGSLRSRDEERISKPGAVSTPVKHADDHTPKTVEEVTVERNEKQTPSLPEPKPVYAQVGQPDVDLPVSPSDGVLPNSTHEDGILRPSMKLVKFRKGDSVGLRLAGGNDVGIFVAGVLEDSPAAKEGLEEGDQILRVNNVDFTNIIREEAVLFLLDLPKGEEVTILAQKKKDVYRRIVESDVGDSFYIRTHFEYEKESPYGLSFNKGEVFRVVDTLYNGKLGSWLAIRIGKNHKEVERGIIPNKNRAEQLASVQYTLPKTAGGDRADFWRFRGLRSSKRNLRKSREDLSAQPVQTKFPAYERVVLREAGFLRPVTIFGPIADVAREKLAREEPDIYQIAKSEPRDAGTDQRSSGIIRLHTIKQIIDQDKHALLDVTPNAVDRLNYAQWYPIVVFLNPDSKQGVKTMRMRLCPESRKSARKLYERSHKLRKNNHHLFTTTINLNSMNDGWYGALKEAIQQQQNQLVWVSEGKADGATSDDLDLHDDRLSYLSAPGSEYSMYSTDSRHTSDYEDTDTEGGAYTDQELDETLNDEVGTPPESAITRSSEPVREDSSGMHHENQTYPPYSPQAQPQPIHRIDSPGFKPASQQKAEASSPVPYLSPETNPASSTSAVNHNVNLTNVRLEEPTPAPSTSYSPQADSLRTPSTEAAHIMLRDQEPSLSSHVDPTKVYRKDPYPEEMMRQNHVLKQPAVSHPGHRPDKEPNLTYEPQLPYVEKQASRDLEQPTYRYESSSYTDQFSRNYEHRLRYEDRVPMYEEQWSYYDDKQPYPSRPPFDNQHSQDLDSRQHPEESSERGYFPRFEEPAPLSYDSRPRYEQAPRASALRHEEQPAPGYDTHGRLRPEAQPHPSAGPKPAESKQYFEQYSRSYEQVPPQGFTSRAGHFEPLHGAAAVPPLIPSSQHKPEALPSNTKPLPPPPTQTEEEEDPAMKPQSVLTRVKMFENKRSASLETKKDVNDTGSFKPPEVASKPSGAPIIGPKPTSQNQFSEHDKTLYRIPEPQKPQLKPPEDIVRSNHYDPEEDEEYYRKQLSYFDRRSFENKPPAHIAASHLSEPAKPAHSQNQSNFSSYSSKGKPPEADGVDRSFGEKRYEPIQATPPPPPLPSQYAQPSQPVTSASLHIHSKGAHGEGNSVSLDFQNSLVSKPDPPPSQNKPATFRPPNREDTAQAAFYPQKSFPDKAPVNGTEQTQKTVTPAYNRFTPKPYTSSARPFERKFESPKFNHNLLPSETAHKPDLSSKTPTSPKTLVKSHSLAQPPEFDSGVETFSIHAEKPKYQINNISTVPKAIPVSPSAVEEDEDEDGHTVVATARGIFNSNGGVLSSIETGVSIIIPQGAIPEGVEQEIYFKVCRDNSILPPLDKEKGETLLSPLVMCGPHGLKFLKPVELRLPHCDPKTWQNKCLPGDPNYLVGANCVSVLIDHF

Key:
[1] = biological target: FLAG-CTR∆ESS (full-length) (human) (UniProt P30988); assay: co-IP; PC-31 (and PC-3) cells stably expressing FLAG-CTRwt or FLAG-CTR∆ESS, serum-starved, with/without CT (0.5–50 nM, 3 minutes); anti-FLAG EZ-view beads, eluted with FLAG peptide; ZO-1 immunoblot
[2] = biological target: GST-CTR-C∆ESS fusion protein (intracellular domain of CTR∆ESS, aa 441–476) (human) (UniProt P30988); assay: pull-down; GST fusion proteins (2 μg) on glutathione-Sepharose 4B incubated with PC-3 cell lysate for 6 h at 4 °C, eluted with 5 mM reduced glutathione; ZO-1 immunoblot; only the target purified
[3] = biological target: FLAG-CTR∆ESS (full-length) (human) (UniProt P30988); assay: proximity ligation; in situ PLA (Duolink) on fixed PC cells (PC-3CTRwt, PC-3CTR∆ESS, LNCaP) with anti-ZO-1 and anti-CTR sera; with/without 50 nM CT for 30 seconds; dots per cell counted

Measured: binding

Zonula Occludens-1 (ZO-1), endogenous (from UniProt Q07157 1-1748)
no binding: all assays above
